Assay [1] addresses AGL6 fused to YFP or CFP (Arabidopsis thaliana) (UniProt P29386). Put plainly: FRET or BRET; pairs of one CFP (CyPet) and one YFP (YPet) fusion co-expressed in tobacco (N. benthamiana) leaf cells; signals in the nucleus by confocal microscopy, 440 nm excitation; FRET efficiency = FRET/CFP, mean of n > 4; steady-state scatter of pFRET against FRET efficiency. On the technique in general: Bioluminescence resonance energy transfer reports proximity on the nanometre scale.

Protein sequences, listed by entry. Tags and fused reporters are not part of them.
UniProt P29386: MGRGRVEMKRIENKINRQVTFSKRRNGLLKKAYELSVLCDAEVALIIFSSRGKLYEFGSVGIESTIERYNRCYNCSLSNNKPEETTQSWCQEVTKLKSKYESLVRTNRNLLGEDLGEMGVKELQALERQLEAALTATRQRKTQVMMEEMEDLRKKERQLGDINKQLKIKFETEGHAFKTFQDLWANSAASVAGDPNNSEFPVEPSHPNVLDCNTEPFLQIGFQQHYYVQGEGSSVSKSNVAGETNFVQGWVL
UniProt P29382: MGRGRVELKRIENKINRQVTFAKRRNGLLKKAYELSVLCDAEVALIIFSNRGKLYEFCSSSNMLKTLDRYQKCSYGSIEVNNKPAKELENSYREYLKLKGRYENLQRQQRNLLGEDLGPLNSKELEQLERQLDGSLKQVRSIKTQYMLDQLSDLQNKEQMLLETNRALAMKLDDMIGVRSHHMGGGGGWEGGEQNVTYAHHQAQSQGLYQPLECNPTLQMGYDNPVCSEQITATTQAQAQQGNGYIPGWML

Assay [2] concerns the target SEP1 fused to YFP (Arabidopsis thaliana) (UniProt P29382). The assay is described as above.
For assay [3] the target is unchanged. Put plainly: FRET or BRET; competition: FRET efficiency of FYF-CFP/SEP1-YFP in tobacco cells with 0, 25, 75 and 100% of unlabeled FYL2 added; mean of n > 4.

Results are given in words; binding and its absence hold for the method and conditions named. Binding seen in cells or lysates may run through a third protein. Binding can be weak; no strength is given.

On to “FYF-like 2 (FYL2/AGL72) fused to CFP (from UniProt Q9FLH5-2)”, for which the binding result in assay [1] and in assay [2] was “binds” throughout.

FYL2, unlabeled (from UniProt Q9FLH5-2): the binding result in assay [3] is “binds”.

(Values after article PMC9256709.)
